In PubChem BioAssay AID2685 (National Center for Advancing Translational Sciences (NCATS), 2010):
The other results are listed elsewhere or left out. Further columns of the screen follow, without active or inactive calls. The list favours compounds with an active or inconclusive main result. Words in brackets tell the shape of the fitted curve; partial curves, single points and poor fits give uncertain potencies.

Experiment: qHTS Assay for Lipid Storage Modulators in Drosophila S3 Cells;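 for cell number change: cells counted by Cell Tracker Red CMTPX staining in the red channel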
Conditions: BODIPY lipid droplet fluorescence, 18-24 h; for cell number change: measured here: cell count max response, cells fed with added oleic acid
In short: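 Drosophila S3 cells got compounds at several concentrations plus oleic acid (400 uM solution). Laser-scanning cytometry with 488 nm excitation read lipid droplets at 500-530 nm and cells at 575-640 nm. Percent activity was relative to 20 uM Triacsin C.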

[1] = measured here: cell number channel AC50, cells fed with added oleic acid
[2] = measured here: lipid fluorescence (Fed channel) AC50, cells fed with added oleic acid

| Structure (SMILES) | cell number change [%] | AC50 [1] | AC50 [2] |
| --- | --- | --- | --- |
| CC(C)CN1CCC(=O)N([C@H](CN=[N+]=[N-])Cc2ccccc2)CC1 | 25.2 | 0.0651 µM [rising, full curve, poor fit] | 29.1 µM [rising, single point] |
| O=C1C(NS(=O)(=O)c2ccc(Br)cc2)=C(N2CCCCC2)C(=O)c2ccccc21 | -2.67 | 3.66 µM [falling, single point] | 6.51 µM [falling, single point] |
| O=C(CSc1nc2ccccc2[nH]1)N/N=C/C=C\c1ccccc1[N+](=O)[O-] | 11.9 | – | 7.31 µM [rising, partial curve] |
| N=C1C(c2ccccc2)=C(O)CN1c1cccc(S(=O)(=O)N2CCCCC2)c1 | -11.7 | – | – |
| CCOC(=O)c1csc(Nc2nc3ccc(F)cc3s2)n1 | -13.7 | – | 32.6 µM [falling, single point] |
| COCCn1c(C)cc(C(=O)CSc2nc3ccccc3c(=O)n2Cc2ccco2)c1C | 14 | – | 18.4 µM [rising, single point] |
| CC1(C)C2CC=C(/C=N/NC(=O)c3ccc(Cl)cc3)C1C2 (stereo not given) | -21.7 | – | 6.51 µM [falling, partial curve, poor fit] |
| CCOc1cc(/C=N/O)ccc1OS(=O)(=O)c1ccc(C)cc1 | -6.14 | 6.51 µM [rising, single point] | – |
| Cc1ccc(S(=O)(=O)NCC(=O)OCC(=O)c2cc(C)n(-c3ccccc3)c2C)cc1 | -21.9 | – | 3.66 µM [falling, full curve] |
| O=C(O)c1cc(N2C(=O)C3CC=CCC3C2=O)ccc1NCc1cccnc1 (stereo not given) | -1.75 | – | 0.0058 µM [falling, full curve, poor fit] |
| O=C(Cn1ccc(NC(=O)OCc2ccccc2)nc1=O)NCc1ccc2[nH]ccc2c1 | -15.3 | 0.291 µM [falling, partial curve, poor fit] | 0.259 µM [falling, full curve, poor fit] |
| CCCCCNC(=O)C(C)Sc1ccc(Cl)cc1 (stereo not given) | – | – | 2.91 µM [falling, single point] |
| CC(C)CN1C(=O)C(=O)N(CC(=O)N2c3ccccc3NC(=O)CC2C)C1=O (stereo not given) | -15.9 | – | 7.31 µM [rising, partial curve, poor fit] |
| COc1ccc2[nH]c3c(c2c1)CCN1C(=O)N([C@@H](C)C(=O)NCc2ccco2)C(=O)[C@]31C | -15.9 | – | 18.4 µM [falling, single point] |
| CCn1c(CSc2ncn[nH]2)nc2cc(C(=O)O)ccc21 | 28.9 | – | – |
| COc1cc(/C=C(\C#N)C(=O)NC2CCCCC2C)ccc1OS(=O)(=O)c1ccc(C)cc1 (stereo not given) | -47.9 | 8.2 µM [falling, partial curve] | 5.17 µM [falling, partial curve] |
| CCOc1ccccc1NC(=O)C1CCCN(S(=O)(=O)c2cccc3cccnc23)C1 (stereo not given) | 7.49 | – | 6.51 µM [rising, single point] |
| CSCCC(NC(=O)COc1ccccc1)C(=O)O (stereo not given) | 10.6 | – | – |
| COc1cc([N+](=O)[O-])cc(/C=N/NC(=O)c2cc(-c3ccccc3)nc3ccccc23)c1O | -4.44 | – | 1.46 µM [falling, partial curve] |

| Structure (SMILES) | cell number change [%] | AC50 [1] | AC50 [2] |
| --- | --- | --- | --- |
| COc1ccccc1OCc1ccc(C(=O)Nc2ccccc2F)cc1 | -24.4 | – | 23.1 µM [falling, single point] |
| Cn1ncc2c(=O)[nH]cnc21 | -35.3 | – | – |
| Cn1c2ccccc2c2cnn(CC(=O)N3CCCCC3)c(=O)c21 | 47.4 | 0.517 µM [rising, full curve] | 23.1 µM [rising, single point] |
| NC(=O)CCCC1=NS(=O)(=O)c2ccccc2N1 | -19.5 | 6.51 µM [falling, single point] | – |
| CCn1c(CSc2nc3ccccc3s2)nnc1SCC(=O)c1ccc2c(c1)OCCO2 | -14.3 | – | 6.51 µM [rising, single point] |
| Cc1cnc(C(=O)OC(C)C(=O)Nc2ccccc2-c2ccccc2)cn1 (stereo not given) | 33.1 | 29.1 µM [rising, single point] | – |
| COc1ccc(C(=O)COC(=O)CN2C(=O)C3C4C=CC(C5CC45)C3C2=O)cc1 (stereo not given) | 16.7 | 2.06 µM [rising, single point] | 23.1 µM [rising, single point] |
| C=CCn1c(SCc2cc(=O)n3cc(C)ccc3n2)nnc1-c1cccc(C)c1 | -30.3 | 18.4 µM [falling, single point] | 7.31 µM [falling, partial curve] |
| CC(C)(C)C1CCc2c(C(=O)NNC(=O)CCCC(=O)O)csc2C1 (stereo not given) | 7.83 | 0.58 µM [falling, single point] | 0.731 µM [falling, single point] |
| Nc1ccc(OCCCc2c(N)nc(N)nc2N)cc1 | -34.5 | 2.91 µM [falling, partial curve, poor fit] | 1.84 µM [falling, partial curve] |
| CC(=O)Nc1ccc(S(=O)(=O)N2CCC(c3nc4c(nnn4Cc4ccccc4Cl)c(=O)[nH]3)CC2)cc1 | -6.25 | – | 25.9 µM [rising, single point] |
| CC(NC(=O)COc1ccc(S(=O)(=O)N2CCOCC2)cc1)c1ccccc1 (stereo not given) | 22.5 | 0.461 µM [falling, single point] | 20.6 µM [rising, partial curve, poor fit] |
| Cc1ccccc1NC(=O)CCCNC(=O)c1ccc(Cl)cc1 | – | – | 29.1 µM [rising, partial curve] |
| COc1ccc(CN(Cc2cc3cc(C)ccc3[nH]c2=O)C(=O)N(C)C)cc1 | -0.644 | – | 1.84 µM [rising, full curve] |
| Cc1nc2ccccc2c(=O)n1Cc1ccc([N+](=O)[O-])cc1 | -7.87 | 0.0651 µM [rising, full curve, poor fit] | – |
| COc1cccc(C2CC(c3ccc(C(C)C)cc3)n3nc(N)nc3N2)c1 (stereo not given) | 28.4 | – | 6.51 µM [rising, single point] |
| COc1ccc(Cl)cc1NC(=O)CN(C)CC(=O)Nc1cc(OC)c(OC)c(OC)c1 | -18.5 | – | 5.8 µM [rising, partial curve] |
| O=C1CCC(=O)N1c1nc2nc(-c3ccccc3)cc(-c3ccccc3)n2n1 | 41.1 | 0.82 µM [rising, partial curve] | 0.461 µM [rising, full curve] |
| CCC(=O)c1ccc(OCC(=O)Nc2ccc(N3CCCCC3)cc2)cc1 | 2.5 | – | – |

Complete entries as entered above. Values in the order: cell number change [%] | AC50 [1] | AC50 [2]
COc1ccc(CN(Cc2cc3cc(C)ccc3[nH]c2=O)C(=O)N(C)C)cc1 reads -0.644 | – | 1.84 µM [rising, full curve]
CC(=O)Nc1ccc(S(=O)(=O)N2CCC(c3nc4c(nnn4Cc4ccccc4Cl)c(=O)[nH]3)CC2)cc1 reads -6.25 | – | 25.9 µM [rising, single point]

Next structures.

| Structure (SMILES) | cell number change [%] | AC50 [1] | AC50 [2] |
| --- | --- | --- | --- |
| COc1ccc(C(=O)CSc2nnc(-c3ccc(S(=O)(=O)N4CCOCC4)cc3)o2)cc1 | -7.77 | 0.116 µM [falling, full curve, poor fit] | 0.00517 µM [falling, full curve] |
| CCOC(=O)c1cc(-c2cccc(C(F)(F)F)c2)nc2nc(SC)[nH]c(=O)c12 | 5.14 | 0.58 µM [rising, full curve, poor fit] | 0.058 µM [falling, partial curve, poor fit] |
| CCOC(=O)N1CCN(C(=O)c2ccc(Cn3c(=S)[nH]c4cc(C(=O)OC)ccc4c3=O)cc2)CC1 | 3.77 | – | – |
| CCc1nc(Nc2ccccc2F)c2oc3ccccc3c2n1 | -34.8 | 29.1 µM [falling, single point] | 29.1 µM [falling, single point] |
| CC1(C)NC(=O)N(CCCOc2ccc3c(c2)CCC3)C1=O | – | – | 0.731 µM [falling, full curve] |
| O=C(c1ccsc1)N1CCCC(N2CCN(c3cccc(Cl)c3)CC2)C1 (stereo not given) | -5.42 | – | – |
| CCOC(=O)Cc1nn(CCc2ccccn2)c(=O)c2ccccc12 | -8.14 | – | 3.66 µM [rising, partial curve] |
| Cc1cccc(C)c1NC(=O)CN(C)C(=O)CN1C(=O)NC(C)(C)C1=O | 2.59 | – | – |
| CCC(C(=O)NC1CCCC1)N(C(=O)Cn1nnc(-c2ccc(C)o2)n1)c1ccc(OC)c(OC)c1 (stereo not given) | -41 | 0.0731 µM [falling, full curve, poor fit] | – |
| OC(CNCc1ccco1)Cn1c2ccccc2c2ccccc21 (stereo not given) | 16.4 | 0.184 µM [falling, full curve, poor fit] | 29.1 µM [rising, single point] |
| CN(C)C(=O)C(CCN1CCC(O)(c2ccc(Cl)cc2)CC1)(c1ccccc1)c1ccccc1 | -53.9 | 16.4 µM [falling, single point] | 1.84 µM [falling, partial curve, poor fit] |
| COc1ccccc1NC(=O)Cc1noc(CSc2cc(C)c3ccccc3n2)n1 | – | 0.13 µM [rising, full curve, poor fit] | 0.411 µM [rising, full curve] |
| COC(=O)CN=Cc1c(C)[nH]n(-c2ccccc2)c1=O | 14.6 | – | – |
| CN(c1ccccc1)S(=O)(=O)c1cccc(NC(=O)Cc2c(F)cccc2Cl)c1 | 31.6 | 23.1 µM [rising, single point] | 4.11 µM [rising, single point] |
| CN(C)c1ccnc2sc(C(=O)c3ccc(Br)cc3)c(N)c12 | 147 | – | – |
| COc1ccc(N2CCN(CC(O)COc3ccc(F)cc3)CC2)cc1 (stereo not given) | -1.27 | – | 0.146 µM [falling, full curve, poor fit] |
| CCOc1cccc2sc(N(CCN(C)C)C(=O)c3ccc4ccccc4c3)nc12 | – | – | 6.51 µM [rising, single point] |
| CCN(CC)C(=O)Cn1c(=O)oc2ccccc21 | -13.5 | – | 0.231 µM [falling, full curve, poor fit] |

Exported tab-delimited: 11 of the compounds above.
Structure (SMILES)	cell number change [%]	AC50 [1]	AC50 [2]
COc1ccc(C(=O)CSc2nnc(-c3ccc(S(=O)(=O)N4CCOCC4)cc3)o2)cc1	-7.77	0.116 µM [falling, full curve, poor fit]	0.00517 µM [falling, full curve]
CCOC(=O)c1cc(-c2cccc(C(F)(F)F)c2)nc2nc(SC)[nH]c(=O)c12	5.14	0.58 µM [rising, full curve, poor fit]	0.058 µM [falling, partial curve, poor fit]
CCOC(=O)N1CCN(C(=O)c2ccc(Cn3c(=S)[nH]c4cc(C(=O)OC)ccc4c3=O)cc2)CC1	3.77	–	–
CCc1nc(Nc2ccccc2F)c2oc3ccccc3c2n1	-34.8	29.1 µM [falling, single point]	29.1 µM [falling, single point]
CC1(C)NC(=O)N(CCCOc2ccc3c(c2)CCC3)C1=O	–	–	0.731 µM [falling, full curve]
Cc1cccc(C)c1NC(=O)CN(C)C(=O)CN1C(=O)NC(C)(C)C1=O	2.59	–	–
CCC(C(=O)NC1CCCC1)N(C(=O)Cn1nnc(-c2ccc(C)o2)n1)c1ccc(OC)c(OC)c1 (stereo not given)	-41	0.0731 µM [falling, full curve, poor fit]	–
OC(CNCc1ccco1)Cn1c2ccccc2c2ccccc21 (stereo not given)	16.4	0.184 µM [falling, full curve, poor fit]	29.1 µM [rising, single point]
COC(=O)CN=Cc1c(C)[nH]n(-c2ccccc2)c1=O	14.6	–	–
CN(C)c1ccnc2sc(C(=O)c3ccc(Br)cc3)c(N)c12	147	–	–
CCOc1cccc2sc(N(CCN(C)C)C(=O)c3ccc4ccccc4c3)nc12	–	–	6.51 µM [rising, single point]
